These are yes or no findings as the source states them, for the method shown. A result given as binding can be weak or reduced; the word gives no strength. Where a sequence is shown, tags or fusion partners need not be part of it. For part of these data: In cells and extracts the contact can be indirect.
target: WTG1-eYCE (C-terminal YFP fusion of WTG1) (Arabidopsis thaliana); test: split reporter; BiFC: eYNE and eYCE fusions co-expressed in Nicotiana benthamiana leaves by A. tumefaciens infiltration; confocal imaging after 48 h; YFP fluorescence in chloroplasts

Sequences of proteins named here, by UniProt entry; tags and fusion partners are left off.
UniProt Q9LN01: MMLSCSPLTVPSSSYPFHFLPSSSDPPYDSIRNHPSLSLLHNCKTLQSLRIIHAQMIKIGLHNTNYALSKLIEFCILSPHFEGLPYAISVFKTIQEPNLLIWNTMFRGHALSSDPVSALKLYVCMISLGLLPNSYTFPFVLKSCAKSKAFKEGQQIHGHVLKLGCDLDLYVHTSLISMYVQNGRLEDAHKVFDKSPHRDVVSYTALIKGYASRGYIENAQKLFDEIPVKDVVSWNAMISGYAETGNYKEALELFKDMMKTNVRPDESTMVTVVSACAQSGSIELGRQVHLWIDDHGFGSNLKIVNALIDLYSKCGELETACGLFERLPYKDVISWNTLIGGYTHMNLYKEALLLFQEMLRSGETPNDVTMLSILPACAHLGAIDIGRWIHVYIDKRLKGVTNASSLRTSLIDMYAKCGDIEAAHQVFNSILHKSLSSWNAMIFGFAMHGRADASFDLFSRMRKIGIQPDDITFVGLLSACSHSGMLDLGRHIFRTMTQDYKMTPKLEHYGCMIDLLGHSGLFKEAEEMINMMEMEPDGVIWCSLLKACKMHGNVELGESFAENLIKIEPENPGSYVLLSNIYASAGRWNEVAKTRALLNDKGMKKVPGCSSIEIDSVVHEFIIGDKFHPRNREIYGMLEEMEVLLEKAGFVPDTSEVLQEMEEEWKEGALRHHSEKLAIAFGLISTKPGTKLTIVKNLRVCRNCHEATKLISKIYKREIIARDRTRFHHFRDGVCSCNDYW

binding | Molecule
binds | MORF9-eYNE (N-terminal YFP fusion of MORF9) (protein, UniProt Q9LPZ1 59-232) AATVDSDYSSKRSNSNEQRETIMLPGCDYNHWLIVMEFPKDPAPSRDQMIDTYLNTLATVLGSMEEAKKNMYAFSTTTYTGFQCTIDEETSEKFKGLPGVLWVLPDSYIDVKNKDYGGDKYINGEIIPCTYPTYQPKQRNNTKYQSKRYERKRDGPPPPEQRKPRQEPAASDSS
binds | MORF8-eYNE (N-terminal YFP fusion of MORF8) (protein, UniProt Q9LKA5 57-395) GGLVSVKGLSTQATSSSLNDPNPNWSNRPPKETILLDGCDFEHWLVVVEPPQGEPTRDEIIDSYIKTLAQIVGSEDEARMKIYSVSTRCYYAFGALVSEDLSHKLKELSNVRWVLPDSYLDVRNKDYGGEPFIDGKAVPYDPKYHEEWIRNNARANERNRRNDRPRNNDRSRNFERRRENMAGGPPPQRPPMGGPPPPPHIGGSAPPPPHMGGSAPPPPHMGQNYGPPPPNNMGGPRHPPPYGAPPQNNMGGPRPPQNYGGTPPPNYGGAPPANNMGGAPPPNYGGGPPPQYGAVPPPQYGGAPPQNNNYQQQGSGMQQPQYQNNYPPNRDGSGNPYQG

target: WHITE TO GREEN1 (WTG1), GAL4 DNA binding domain fusion (pBD-WTG1) (Arabidopsis thaliana) (UniProt F4KJ01); test: two-hybrid; pGBKT7-WTG1 (GAL4 BD) cotransformed with pGADT7 (GAL4 AD) fusions into yeast strain AH109; growth on SD/-Trp-Leu-His plates indicates interaction

binding | Molecule
no binding | OTP82, GAL4 activation domain fusion (pAD-OTP82) (from UniProt Q9LN01 1-741)
no binding | OZ1, GAL4 activation domain fusion (pAD-OZ1) (protein, UniProt Q8S9K3 1-758) MNNSTRLISLFSPHPPPLFLLRGLYISRIANLRRFHRRAFPPSSVASTNLCSFRPLVSLPPLIPTFPIGRFYNHQVRVSAADFVPSYHNQQLPEWTELLQSLSKAGYFSDSGSISGLESEFFPGFPDELLRPALACLALARERPELLEMLSRRDVEVLVENGKPFLFKTGPDSLKRMSLYLRSGLQGIGKLMDMEKASTVDLMRLILSYVVDVASSEESKQHNKEIMESSVRSLLSQIAKMSLRPPESNVHDTMQNQYSDRDGQGVRSFQNNVEMKRGDWICSRCSGMNFARNVKCFQCDEARPKRQLTGSEWECPQCDFYNYGRNVACLRCDCKRPRDSSLNSANSDYSSDPELERRLVENEKKAQRWLSKVAQGGSDANSVDTDEDFPEIMPLRKGVNRYVVSTRKPPLERRLANTENRVATDGNSKRSDDNALGSKTTRSLNEILGSSSSLTSRSDDKNVSSRRFESSQGINTDFVPFVPLPSDMFAKKPKEETQIGLIDNIQVDGFSGGNQNVYQEDKSDANHSGKETDRLEKEDHKSEEPARWFKRVTELHNVSDLESAIPQEISPEKMPMRKGENRFVVSRKKDRSLTSPAYKRPEDSDFVPFVPFPPDYFAKEKQPKESIDTLPAPATENVSQVVQQEPREPSINKSDTVAVKIRNGKSLEGSLVKESDLLDMSEEAKAERWFKRVAEIKNISELSEIPDEDFPSIMPMRKGVNRFVVSKRKTPLERRLTSQRHQRNPHITNSDPTGKGDK
no binding | PPO1, GAL4 activation domain fusion (pAD-PPO1) (protein, UniProt P55826 1-537) MELSLLRPTTQSLLPSFSKPNLRLNVYKPLRLRCSVAGGPTVGSSKIEGGGGTTITTDCVIVGGGISGLCIAQALATKHPDAAPNLIVTEAKDRVGGNIITREENGFLWEEGPNSFQPSDPMLTMVVDSGLKDDLVLGDPTAPRFVLWNGKLRPVPSKLTDLPFFDLMSIGGKIRAGFGALGIRPSPPGREESVEEFVRRNLGDEVFERLIEPFCSGVYAGDPSKLSMKAAFGKVWKLEQNGGSIIGGTFKAIQERKNAPKAERDPRLPKPQGQTVGSFRKGLRMLPEAISARLGSKVKLSWKLSGITKLESGGYNLTYETPDGLVSVQSKSVVMTVPSHVASGLLRPLSESAANALSKLYYPPVAAVSISYPKEAIRTECLIDGELKGFGQLHPRTQGVETLGTIYSSSLFPNRAPPGRILLLNYIGGSTNTGILSKSEGELVEAVDRDLRKMLIKPNSTDPLKLGVRVWPQAIPQFLVGHFDILDTAKSSLTSSGYEGLFLGGNYVAGVALGRCVEGAYETAIEVNNFMSRYAYK
no binding | ORRM1, GAL4 activation domain fusion (pAD-ORRM1) (protein, UniProt Q8L440 1-374) MEALIASTSFFVPISNSSSSHIINNRFFPSFYSPNLNFGTFRKTSLSSSHLVFSSSAISAPPSSTVLTRNSYWMVLLDKPPHWVSSKSAMVDYYVEILAKVLGNEKDAQVSIYDASFDTHFGFCCHIDEDASRQLASLPGVVSIRPEQDYSSEKKNYGIGSHKGVSLFDHGTVKHWMVRIDKPGVGIVTKAQMVDHCVQLLSKVLWNEKDAQMCLYHVSWQSDFGFCCDLDERSAVELAGVPGVLAVVPDNSFESLNKDYEGDSTQDSRDQDDSESPPVKTKKLFITGLSFYTSEKTLRAAFEGFGELVEVKIIMDKISKRSKGYAFLEYTTEEAAGTALKEMNGKIINGWMIVVDVAKTKPFRQNRSQPSFGL
no binding | MORF2, GAL4 activation domain fusion (pAD-ORF2 as printed) (protein, UniProt O22793 1-219) MALPLSGTRHLTRALLSNVTLMAPPRIPSSVHYGGSRLGCSTRFFSIRCGANRSGSTYSPLNSGSNFSDRPPTEMAPLFPGCDYEHWLIVMDKPGGEGATKQQMIDCYIQTLAKVVGSEEEAKKRIYNVSCERYLGFGCEIDEETSTKLEGLPGVLFVLPDSYVDPENKDYGAELFVNGEIVQRSPERQRRVEPQPQRAQDRPRYNDRTRYSRRRENTR
binds | MORF8, GAL4 activation domain fusion (pAD-MORF8) (protein, UniProt Q9LKA5 1-395) MATHTISRSILCRPAKSLSFLFTRSFASSAPLAKSPASSLLSRSRPLVAAFSSVFRGGLVSVKGLSTQATSSSLNDPNPNWSNRPPKETILLDGCDFEHWLVVVEPPQGEPTRDEIIDSYIKTLAQIVGSEDEARMKIYSVSTRCYYAFGALVSEDLSHKLKELSNVRWVLPDSYLDVRNKDYGGEPFIDGKAVPYDPKYHEEWIRNNARANERNRRNDRPRNNDRSRNFERRRENMAGGPPPQRPPMGGPPPPPHIGGSAPPPPHMGGSAPPPPHMGQNYGPPPPNNMGGPRHPPPYGAPPQNNMGGPRPPQNYGGTPPPNYGGAPPANNMGGAPPPNYGGGPPPQYGAVPPPQYGGAPPQNNNYQQQGSGMQQPQYQNNYPPNRDGSGNPYQG
binds | MORF9, GAL4 activation domain fusion (pAD-MORF9) (protein, UniProt Q9LPZ1 1-232) MASFTTTSSSSLLLKTLLPVSHLNRFSTLSGIRVGDSWTPLLRNISTAGSRRRVAIVKAATVDSDYSSKRSNSNEQRETIMLPGCDYNHWLIVMEFPKDPAPSRDQMIDTYLNTLATVLGSMEEAKKNMYAFSTTTYTGFQCTIDEETSEKFKGLPGVLWVLPDSYIDVKNKDYGGDKYINGEIIPCTYPTYQPKQRNNTKYQSKRYERKRDGPPPPEQRKPRQEPAASDSS

From publication PMC5854136
